# Test results published in PubChem BioAssay AID504467 (National Center for Advancing Translational Sciences (NCATS), 2011).
# The campaign covered roughly 330,000 compounds. About 7,700 (2.3%) were called active. Inconclusive means that the source gave no clear call. Such entries were picked first, then a sample of the others. Calls follow the shape of the dose curve; as a rule, active = well fitted inhibition curve with a large enough effect; inconclusive = small, poorly fitted or top-dose-only effect, or effect the other way; inactive = flat fitted curve, though single readings scatter. A potency beside an inconclusive call is a rough fit, not a confirmed value.
# Assay: qHTS screen for small molecules that inhibit ELG1-dependent DNA repair in human embryonic kidney (HEK293T) cells expressing luciferase-tagged ELG1; also: nearly all actives have a fitted effect of over 55% in size
# Details: HEK293T ELG1-luciferase reporter, luminescence, 16 h, DNA damage induced by 5-fluorouridine; activity change, negative = inhibition: at 46.1 µM (top of the series)
# How it was run: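 Step one: seed 2,000 cells per well. Step two: pin-transfer compound or DMSO alongside 5-fluorouridine. Step three: incubate 16 hr, 37 °C, 5% CO2. Step four: add ONE-Glo, wait 30 min, read luminescence.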
# % is scaled to controls: 0 for no effect and ±100 for the full control effect; potency is read from the fitted curve at half-maximal effect.
Structure (SMILES),"activity change, negative = inhibition",Potency
C=C(C)C(=O)NNc1ccccc1,inactive: -6.33%,–
CC(OC(=O)CC1CCCC1)C(=O)Nc1ccc(S(N)(=O)=O)cc1 (stereo not given),inactive: 7.13%,–
CC(NC(=O)c1ccc(CS(=O)(=O)c2ccc(Cl)cc2)o1)c1ccc2c(c1)OCCO2 (stereo not given),–,"inconclusive: 25.9 µM [inhibitor, single point]"
COC(=O)c1c(C)oc2ccc(NS(=O)(=O)c3cc(OC)ccc3OC)cc12,–,"inconclusive: 18.4 µM [inhibitor, partial curve]"
COc1cccc(NC(=O)CSc2nnc(-c3ccoc3C)n2-c2ccccc2)c1,–,"inconclusive: 18.4 µM [inhibitor, partial curve, poor fit]"
CCN(C(=O)Cn1c(=O)oc2cc(S(=O)(=O)N3CCOCC3)ccc21)c1ccccc1,–,"inconclusive: 9.2 µM [inhibitor, partial curve]"
O=C(c1ccc(Cl)cc1)N1CCCC(C(=O)N2CCN(c3ccccc3)CC2)C1 (stereo not given),–,"inconclusive: 2.91 µM [inhibitor, partial curve, poor fit]"
Cn1cccc1C(=O)NC(=O)COC(=O)CCNS(=O)(=O)c1cccc(C(F)(F)F)c1,inactive: -5.95%,–
CCn1c(N2CCN(C(=S)Nc3ccc(OC)cc3)CC2)nc2ccccc21,–,"inconclusive: 23.1 µM [inhibitor, partial curve]"
O=C(NCc1ccc2c(c1)OCO2)c1cccc2c1C(=O)N(C1CCCCC1)C2,inactive: 6.39%,–
COc1cc(OC)c(OC)cc1/C=N/NC(=O)c1ccc(=O)n(C)c1,inactive: -12%,–
Cc1ncsc1C(=O)NCc1ccc(N2CCCC2=O)cc1,–,"inconclusive: 14.6 µM [inhibitor, partial curve]"
c1cc(-c2sc(-c3ccncc3)c(-c3ccncc3)c2-c2ccncc2)ccn1,–,active: 18.3 µM
CCc1ccc2oc(C(=O)NCc3ccc(S(N)(=O)=O)cc3)c(C)c2c1,inactive: 10.9%,–
O=C(O)c1ccc(/C=N/n2c(C3CCCCC3)n[nH]c2=S)cc1,inactive: -6.01%,–
CCn1c(SCC(N)=O)nnc1-c1ccc(OC)c(OC)c1,–,"inconclusive: 7.31 µM [activator, partial curve, poor fit]"
CCN1CCN(Cc2ccc(NC(=O)c3ccc(C)c(NC(=O)C4=NN(c5ccccc5)C(=O)C4)c3)cc2C(F)(F)F)CC1,inactive: 15.7%,–
COc1ccc(NC2=NCC(Cc3ccc(Br)cc3)S2)cc1 (stereo not given),–,"inconclusive: 32.6 µM [inhibitor, partial curve, poor fit]"
Cc1c(NC(=O)CCCN2C(=O)c3cccc4cccc(c34)C2=O)c(=O)n(-c2ccccc2)n1C,–,"inconclusive: 29.1 µM [inhibitor, partial curve, poor fit]"
CCC(C)N(C(=O)CSc1ncnc2c1cnn2-c1ccccc1)C1CCS(=O)(=O)C1 (stereo not given),inactive: -23.7%,–
O=C1CCCN1CC(CN1CCOCC1)Sc1nc2ccccc2c(=O)n1-c1ccccc1 (stereo not given),–,"inconclusive: 23.1 µM [inhibitor, single point]"
C=CCn1c(NCc2ccccc2OC)nc2ccccc21,inactive: 12.9%,–
O=C(O)CC(c1cccc([N+](=O)[O-])c1)N1Cc2ccccc2C1=O (stereo not given),inactive: 6.62%,–

# Looked up above.
# Entry for `O=C(NCc1ccc2c(c1)OCO2)c1cccc2c1C(=O)N(C1CCCCC1)C2` under activity change, negative = inhibition: inactive: 6.39%
# Entry for `O=C(c1ccc(Cl)cc1)N1CCCC(C(=O)N2CCN(c3ccccc3)CC2)C1` (stereo not given) under Potency: inconclusive: 2.91 µM [inhibitor, partial curve, poor fit]

# Next structures

Structure (SMILES),"activity change, negative = inhibition",Potency
CCc1cccc2c(C(=O)COC(=O)c3nn(C)c(=O)c4ccccc34)c[nH]c12,–,"inconclusive: 18.4 µM [inhibitor, single point]"
CCOC(=O)C1CCN(c2cc3c(cc2NC(=O)c2ccccc2F)n(C)c(=O)n3C)CC1,–,"inconclusive: 1.83 µM [inhibitor, partial curve, poor fit]"
O=C(CCC(=O)N1CCN(c2cccc(Cl)c2)CC1)c1cccs1,inactive: 1.76%,–
Nc1ccc(-n2nncc2-c2ccc(Cl)cc2)cc1,inactive: 1.91%,–
Cc1c(-c2nc(-c3ccncc3)no2)cccc1[N+](=O)[O-],–,"inconclusive: 20.6 µM [activator, partial curve]"
O=C(Cc1ccc([N+](=O)[O-])cc1)N1N=C(C2CC2)CC1(O)C(F)(F)F (stereo not given),inactive: -2.37%,–
O=C1C=Cc2ccccc2/C1=C/c1[nH]c(=O)[nH]c1O,inactive: 1.03%,–
Cc1cc2nc(-c3ccc(NC(=O)C(C)C)cc3)oc2cc1C,–,"inconclusive: 1.84 µM [activator, partial curve]"
NCc1ccccc1CS(=O)(=O)N1CCOCC1,inactive: -2.69%,–
Cc1ccc(C(N)=Nc2ccccc2)cc1,–,"inconclusive: 13 µM [activator, partial curve]"
CC(C)Cc1nc(Nc2ccc(S(=O)(=O)N3CCCC3)cc2)c2nnn(Cc3ccccc3)c2n1,–,"inconclusive: 20.6 µM [inhibitor, partial curve, poor fit]"
CCC(C)n1c(=O)c2sccc2n2c(CCCC(=O)N3CCC(C(N)=O)CC3)nnc12 (stereo not given),inactive: 13.7%,–
Cc1cc(CNC(=O)Cn2cc([N+](=O)[O-])cn2)c2ccccc2n1,inactive: 13.8%,–
CCOc1ncccc1C(=O)N1CCN(c2ccc(C(F)(F)F)cn2)CC1,–,"inconclusive: 20.6 µM [inhibitor, partial curve, poor fit]"
CCOC(=O)C1CCN(C(=O)c2ccc3c(=O)n4nc(Nc5cc(C)ccc5C)sc4nc3c2)CC1,–,"inconclusive: 29.1 µM [inhibitor, partial curve, poor fit]"
O=C(Nc1ccccc1)c1ccc(Br)o1,–,"inconclusive: 18.4 µM [activator, partial curve]"
COC(=O)c1ccccc1NC(=O)CSc1nnc(-c2cccnc2)o1,–,"inconclusive: 11.6 µM [activator, single point]"
CC1CCN(C(=O)c2ccc(-c3ccccc3Cl)o2)CC1,–,"inconclusive: 5.8 µM [activator, full curve]"
Cc1nn(Cc2c(F)c(F)c(F)c(F)c2F)c(C)c1NC(=O)c1ccc(COc2ccccc2Cl)o1,–,"inconclusive: 18.4 µM [inhibitor, partial curve, poor fit]"
Cc1c(C)c2ccc(OCC(=O)Nc3cccnc3)cc2oc1=O,–,"inconclusive: 16.4 µM [activator, partial curve]"
CCOc1ccc(S(=O)(=O)N2CCOCC2)cc1NC(=O)C1=COCCO1,–,"inconclusive: 18.3 µM [inhibitor, partial curve, poor fit]"
CCOC(=O)C1CCN(C(=O)Cc2ccc(-c3ccccc3)cc2)CC1,–,"inconclusive: 18.3 µM [inhibitor, single point]"
